Measurements as given in publication PMC12796736.
No constants are given. Whether binding was seen depends on the method and setting. In cells and extracts the contact can be indirect. Here binding means that the protein was enriched with, or labelled near, the bait; the list need not be complete.

Sequences of proteins named here, by UniProt entry; tags and fusion partners are left off.
UniProt P18872: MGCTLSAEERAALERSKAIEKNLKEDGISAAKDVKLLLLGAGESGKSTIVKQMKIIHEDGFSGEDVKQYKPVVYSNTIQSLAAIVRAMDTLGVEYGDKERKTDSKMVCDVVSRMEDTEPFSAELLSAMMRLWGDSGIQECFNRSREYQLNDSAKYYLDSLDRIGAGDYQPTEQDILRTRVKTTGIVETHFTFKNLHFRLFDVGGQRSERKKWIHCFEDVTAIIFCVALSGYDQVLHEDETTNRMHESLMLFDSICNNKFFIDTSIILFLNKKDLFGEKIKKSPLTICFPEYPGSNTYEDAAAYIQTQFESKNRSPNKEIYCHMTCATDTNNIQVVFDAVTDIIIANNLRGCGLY

B1: resistance to inhibitors of cholinesterase 8A (protein, UniProt Q3TIR3 1-530)
chain: MEPRAVADALETGEEDAVTEALRSFNREHSQSFTFDDAQQEDRKRLAKLLVSVLEQGLSPKHRVTWLQTIRILSRDRSCLDSFASRQSLHALACYADITVSEEPIPQSPDMDVLLESLKCLCNLVLSSPTAQMLAAEARLVVRLAERVGLYRKRSYPHEVQFFDLRLLFLLTALRTDVRQQLFQELHGVRLLTDALELTLGVAPKENPPVMLPAQETERAMEILKVLFNITFDSVKREVDEEDAALYRYLGTLLRHCVMVEAAGDRTEEFHGHTVNLLGNLPLKCLDVLLALELHEGSLEFMGVNMDVISALLAFLEKRLHQTHRLKECVAPVLNVLTECARMHRPARKFLKAQVLPPLRDVRTRPEVGDLLRNKLVRLMTHLDTDVKRVAAEFLFVLCSESVPRFIKYTGYGNAAGLLAARGLMAGGRPEGQYSEDEDTDTEEYREAKASINPVTGRVEEKPPNPMEGMTEEQKEHEAMKLVNMFDKLSRHRVIQPMGMSPRGHLTSLQDAMCETMEGQLSSDPDSDPD
B2: RGS7 (protein, UniProt O54829 1-469)
chain: MAQGNNYGQTSNGVADESPNMLVYRKMEDVIARMQDEKNGIPIRTVKSFLSKIPSVFSGSDIVQWLIKNLTIEDPVEALHLGTLMAAHGYFFPISDHVLTLKDDGTFYRFQTPYFWPSNCWEPENTDYAVYLCKRTMQNKARLELADYEAESLARLQRAFARKWEFIFMQAEAQAKVDKKRDKIERKILDSQERAFWDVHRPVPGCVNTTEVDIKKSSRMRNPHKTRKSVYGLQNDIRSHSPTHTPTPETKPPTEDELHQQIKYWQIQLDRHRLKMSKVADSLLSYTEQYVEYDPFLVPPDPSNPWLSDDTTFWELEASKEPSQQRVKRWGFGMDEALKDPVGREQFLKFLESEFSSENLRFWLAVEDLKRRPIREVPSRVQEIWQEFLAPGAPSAINLDSKSYDKTTQNVKEPGRYTFEDAQEHIYKLMKSDSYPRFIRSSAYQELLQAKRKGKTLTSKRLTSLVQSY

Assays:
[1] = molecular target: G⍺o, alpha subunit of the heterotrimeric G protein Go (native, mouse brain) (mouse (endogenous in mouse brain)) (UniProt P18872); test: affinity purification with mass spectrometry; G⍺o immunopurified (sc-13532) from GDP-pretreated mouse brain lysate, three independent lysates; LC-MS/MS; enrichment against G⍺o-GTPγS samples and control antibody samples
[2] = molecular target: G⍺o, alpha subunit of the heterotrimeric G protein Go (native, mouse brain) (mouse (endogenous in mouse brain)) (UniProt P18872); test: affinity purification with mass spectrometry; G⍺o immunopurified (sc-13532) from GTPγS-pretreated mouse brain lysate, three independent lysates; LC-MS/MS; enrichment against G⍺o-GDP samples and isotype-matched control antibody samples

| Binder | binding [1] | binding [2] |
| --- | --- | --- |
| B1 | binds |  |
| B2 |  | binds |
